Measured values: US6974895B1, “Transgenic legume plants modified to produce resveratrol glucoside and uses thereof” (The Samuel Roberts Noble Foundation, Inc., priority 1999, dated 2005)
Some entries share one result that the patent states for a list of compounds.

Test system: Phoma medicaginis
Experiment: Agar-plate bioassay of hyphal growth
Type: cell-based
Conditions: measured after one week, three replicates

SMILES: Oc1ccc(C=Cc2cc(O)cc(O)c2)cc1 [resveratrol, 3,5,4′-trihydroxystilbene]
- reduction of hyphal growth (resveratrol 50 μg/ml in PDA): > 50%

SMILES: OC[C@H]1O[C@@H](Oc2cc(O)cc(/C=C/c3ccc(O)cc3)c2)[C@H](O)[C@@H](O)[C@@H]1O [RGluc, Resveratrol-3-O-β-D-glucopyranoside]
- reduction of hyphal growth (RGluc 85 μg/ml in PDA): > 50%
